# The supplement of paper PMC8256030
# Values joined by “and” are separate entries in the source; they are usually repeats but may differ in a detail not shown here. Equal entries are not always repeated. Structures can show the parent of a compound that is named as a salt. Some of the results follow. This data set is noisy: repeats of one test often differ as much as different tests do.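 HEK293T cells were given each compound shortly before transfection with a reporter in which red mCherry is followed by the SARS-CoV-2 frameshift element and then GFP in the −1 frame, so GFP appears only after frameshifting.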
# System: SARS-CoV-2 -1 PRF reporter mCherry-FSE-GFP(-1)
# Assay: percent effect, decrease of GFP/mCherry ratio (-1 PRF reporter) relative to controls; higher = stronger frameshift inhibition
# Settings: 10 µM; 24 h; HEK293T
row,Compound,percent effect
1,CN1CCN(CCCN2c3ccccc3Sc3ccc(Cl)cc32)CC1,1.29%
2,COc1cc2c(cc1OC)C(=O)C(CC1CCN(Cc3ccccc3)CC1)C2 (centres undefined) [Donepezil·HCl],-1.22%
3,CCCCCCOC(=O)NC(=N)c1ccc(NCc2nc3cc(C(=O)N(CCC(=O)OCC)c4ccccn4)ccc3n2C)cc1,-0.458%
4,C[C@]12CC[C@@H]3c4ccc(OC(=O)c5ccccc5)cc4CC[C@H]3[C@@H]1CC[C@@H]2O [estradiol benzoate],-1.98%
5,C=C[C@H]1CN2CC[C@H]1C[C@H]2[C@H](O)c1ccnc2ccc(OC)cc12 [Qualaquin],1.59%
6,Cn1cnc([N+](=O)[O-])c1Sc1ncnc2nc[nH]c12,0.291%
7,C=CCc1ccccc1OCC(O)CNC(C)C (centres undefined),-2.91%
8,CC[C@]1(O)C[C@H]2CN(CCc3c([nH]c4ccccc34)[C@@](C(=O)OC)(c3cc4c(cc3OC)N(C=O)[C@H]3[C@@](O)(C(=O)OC)[C@H](OC(C)=O)[C@]5(CC)C=CCN6CC[C@]43[C@@H]65)C2)C1 [Vincristine sulfate],-5.64%
9,CCOC(N)=O [urethane],-6.43%
10,NC(=O)c1ccc(F)c2c1C[C@@H](N(C1CCC1)C1CCC1)CO2 [robalzotan],0.466%
11,CN1CCC(=C2c3ccccc3CCc3cccnc32)CC1,-3.52%
12,O=S(=O)(O)CCCS(=O)(=O)O,-0.68%
13,CC(C)(O)c1ccccc1CC[C@@H](SCC1(CC(=O)O)CC1)c1cccc(/C=C/c2ccc3ccc(Cl)cc3n2)c1 [montelukast],-1.04% and 2.46%
14,CO[C@H]1/C=C/O[C@@]2(C)Oc3c(C)c(O)c4c(O)c(c(/C=N/N5CCN(C)CC5)c(O)c4c3C2=O)NC(=O)/C(C)=C\C=C\[C@H](C)[C@H](O)[C@@H](C)[C@@H](O)[C@@H](C)[C@H](OC(C)=O)[C@@H]1C [Rifadin],3.5%

# Single values from above:
# Entry for `CCOC(N)=O` [urethane] under percent effect: -6.43%
# Entry for `CO[C@H]1/C=C/O[C@@]2(C)Oc3c(C)c(O)c4c(O)c(c(/C=N/N5CCN(C)CC5)c(O)c4c3C2=O)NC(=O)/C(C)=C\C=C\[C@H](C)[C@H](O)[C@@H](C)[C@@H](O)[C@@H](C)[C@H](OC(C)=O)[C@@H]1C` [Rifadin] under percent effect: 3.5%
